{"source": "PubChem BioAssay AID1259254 | NCATS, 2017", "purpose": "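Finding genes that stop cells copying their DNA twice in one cycle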 (primary screen)", "cells": "human HCT116 colorectal cancer cells", "knock-down reagent": "single siRNA against human genes", "timing": "3 days", "read-out": "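Imaged Hoechst DNA stain sorts each cell into a cycle phase by DNA amount; per plate, G2 fraction set to 0% for non-targeting and 100% for GMNN siRNA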", "reading the numbers": "G2 robust z-score: higher = more G2 cells, more excess DNA replication", "rule for the call": "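An siRNA counts as active if its G2 robust z-score lies at least 5 MADs above the screen median; here such calls match roughly 38% of GMNN control or more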", "note": "Here is one part, drawn at random, of about 59,000 reagents. About 1,550 of all reagents (2.6%) count as active. 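G2 share is only a proxy for re-replication; each gene was hit by three separate siRNAs, and active genes were retested.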 Unmarked entries are inactive. The numbers tell different reagents against one gene apart. Not all columns of the deposit are shown. Reagent sequences are not shown. The record does not give: the amount of reagent."}
{"target": "CLEC4M (GeneID 10332)", "reagent": 1, "G2 robust z-score": 0.118}
{"target": "CLEC4M (GeneID 10332)", "reagent": 2, "G2 robust z-score": 0.213}
{"target": "CLEC4M (GeneID 10332)", "reagent": 3, "G2 robust z-score": 0.151}
{"target": "RBM3 (GeneID 5935)", "reagent": 1, "G2 robust z-score": -0.585}
{"target": "RBM3 (GeneID 5935)", "reagent": 2, "G2 robust z-score": -0.483}
{"target": "RBM3 (GeneID 5935)", "reagent": 3, "G2 robust z-score": 0.212}

Part of the list above, set out differently:
target,reagent,G2 robust z-score
CLEC4M (GeneID 10332),2,0.213
CLEC4M (GeneID 10332),3,0.151

More results follow:
{"target": "DTX2 (GeneID 113878)", "reagent": 1, "G2 robust z-score": -0.745}
{"target": "DTX2 (GeneID 113878)", "reagent": 2, "G2 robust z-score": 0.405}
{"target": "DTX2 (GeneID 113878)", "reagent": 3, "G2 robust z-score": -0.642}
{"target": "ZNF571 (GeneID 51276)", "reagent": 1, "G2 robust z-score": -0.821}
{"target": "ZNF571 (GeneID 51276)", "reagent": 2, "G2 robust z-score": 0.199}
{"target": "ZNF571 (GeneID 51276)", "reagent": 3, "G2 robust z-score": 3.06}
